# Experimental data reported in the supplement of paper PMC8728848.
# The other results are listed elsewhere or left out.
# B1: PEB1 (Campylobacter jejuni), Q0P9X8 (protein)
# chain: MVFRKSLLKLAVFALGACVAFSNANAAEGKLESIKSKGQLIVGVKNDVPHYALLDQATGEIKGFEVDVAKLLAKSILGDDKKIKLVAVNAKTRGPLLDNGSVDAVIATFTITPERKRIYNFSEPYYQDAIGLLVLKEKKYKSLADMKGANIGVAQAATTKKAIGEAAKKIGIDVKFSEFPDYPSIKAALDAKRVDAFSVDKSILLGYVDDKSEILPDSFEPQSYGIVTKKDDPAFAKYVDDFVKEHKNEIDALAKKWGL
# Tests used:
# Assay in all cases: glycan array binding signal (z-score within array); higher = stronger binding
# Conditions in all cases: glycan notation: IUPAC condensed, linker removed
# [1] = target: Kdn(a2-3)Gal(b1-4)[Fuc(a1-3)]GlcNAc
# In short: (§1)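 The binding signal is a Z-score computed within each array and averaged over linkers. Arrays of the same protein sequence at different concentrations or buffers were also averaged together. Data originate from 3228 arrays in the Consortium for Functional Glycomics database, kept only where the protein sequence was available.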
# Kdn(a2-6)Gal(b1-4)GlcNAc = target: Kdn(a2-6)Gal(b1-4)GlcNAc
# In short: as §1
# [2] = target: Man(a1-2)Man(a1-2)Man(a1-3)Man
# In short: as §1
# [3] = target: Man(a1-2)Man(a1-2)Man(a1-6)[Man(a1-3)]Man
# In short: as §1
# Man(a1-2)Man(a1-3)Man = target: Man(a1-2)Man(a1-3)Man
# In short: as §1
# [4] = target: Man(a1-2)Man(a1-3)[Man(a1-2)Man(a1-6)]Man
# In short: as §1
# [5] = target: Man(a1-2)Man(a1-3)[Man(a1-2)Man(a1-6)]Man(a1-6)[Man(a1-2)Man(a1-2)Man(a1-3)]Man
# In short: as §1
# [6] = target: Man(a1-2)Man(a1-3)[Man(a1-2)Man(a1-6)]Man(a1-6)[Man(a1-2)Man(a1-2)Man(a1-3)]Man(b1-4)GlcNAc(b1-4)GlcNAc
# In short: as §1
# [7] = target: Man(a1-2)Man(a1-3)[Man(a1-6)]Man(a1-6)[Man(a1-2)Man(a1-3)]Man(b1-4)GlcNAc(b1-4)GlcNAc
# In short: as §1
# [8] = target: Man(a1-2)Man(a1-6)[Man(a1-3)]Man(a1-6)[Man(a1-2)Man(a1-2)Man(a1-3)]Man
# In short: as §1
# [9] = target: Man(a1-2)Man(a1-6)[Man(a1-3)]Man(a1-6)[Man(a1-2)Man(a1-2)Man(a1-3)]Man(b1-4)GlcNAc(b1-4)GlcNAc
# In short: as §1
# Man(a1-3)[Man(a1-6)]Man = target: Man(a1-3)[Man(a1-6)]Man
# In short: as §1
# [10] = target: Man(a1-3)[Man(a1-6)]Man(a1-6)[Man(a1-2)Man(a1-3)]Man(b1-4)GlcNAc(b1-4)GlcNAc
# In short: as §1
# [11] = target: Man(a1-3)[Man(a1-6)]Man(a1-6)[Man(a1-3)]Man
# In short: as §1
# [12] = target: Man(a1-3)[Man(a1-6)]Man(a1-6)[Man(a1-3)]Man(b1-4)GlcNAc(b1-4)GlcNAc
# In short: as §1
# [13] = target: Man(a1-3)[Man(a1-6)]Man(b1-4)GlcNAc(b1-4)GlcNAc
# In short: as §1
# Man(a1-6)Man = target: Man(a1-6)Man
# In short: as §1
# Man(b1-4)GlcNAc = target: Man(b1-4)GlcNAc
# In short: as §1
# Neu5Ac(a2-3)Gal = target: Neu5Ac(a2-3)Gal
# In short: as §1
# [14] = target: Neu5Ac(a2-3)Gal(b1-3)GalNAc
# In short: as §1
# [15] = target: Neu5Ac(a2-3)Gal(b1-3)GalNAc(b1-3)Gal(a1-4)Gal(b1-4)Glc
# In short: as §1
# [16] = target: Neu5Ac(a2-3)Gal(b1-3)GalNAc(b1-4)[Neu5Ac(a2-3)]Gal(b1-4)Glc
# In short: as §1
# [17] = target: Neu5Ac(a2-3)Gal(b1-3)GalNAc6S
# In short: as §1
# [18] = target: Neu5Ac(a2-3)Gal(b1-3)GlcNAc
# In short: as §1
# [19] = target: Neu5Ac(a2-3)Gal(b1-3)GlcNAc(b1-2)Man(a1-3)[Neu5Ac(a2-3)Gal(b1-3)GlcNAc(b1-2)Man(a1-6)]Man(b1-4)GlcNAc(b1-4)GlcNAc
# In short: as §1
# [20] = target: Neu5Ac(a2-3)Gal(b1-3)GlcNAc(b1-3)Gal(b1-3)GlcNAc
# In short: as §1
# [21] = target: Neu5Ac(a2-3)Gal(b1-3)GlcNAc(b1-3)Gal(b1-4)GlcNAc
# In short: as §1
# [22] = target: Neu5Ac(a2-3)Gal(b1-3)GlcNAc(b1-3)GalNAc
# In short: as §1
# [23] = target: Neu5Ac(a2-3)Gal(b1-3)GlcNAc6S
# In short: as §1
# [24] = target: Neu5Ac(a2-3)Gal(b1-3)[Fuc(a1-4)]GlcNAc
# In short: as §1
# [25] = target: Neu5Ac(a2-3)Gal(b1-3)[Fuc(a1-4)]GlcNAc(b1-3)Gal(b1-3)[Fuc(a1-4)]GlcNAc
# In short: as §1
# [26] = target: Neu5Ac(a2-3)Gal(b1-3)[Fuc(a1-4)]GlcNAc(b1-3)Gal(b1-4)[Fuc(a1-3)]GlcNAc
# In short: as §1
# [27] = target: Neu5Ac(a2-3)Gal(b1-3)[Neu5Ac(a2-3)Gal(b1-4)]GlcNAc
# In short: as §1
# [28] = target: Neu5Ac(a2-3)Gal(b1-3)[Neu5Ac(a2-6)]GalNAc
# In short: as §1
# Neu5Ac(a2-3)Gal(b1-4)Glc = target: Neu5Ac(a2-3)Gal(b1-4)Glc
# In short: as §1
binder,measurement,setting,value
B1,glycan array binding signal (z-score),[1],-0.113
same,glycan array binding signal (z-score),Kdn(a2-6)Gal(b1-4)GlcNAc,0.341
same,glycan array binding signal (z-score),[2],0.86
same,glycan array binding signal (z-score),[3],0.453
same,glycan array binding signal (z-score),Man(a1-2)Man(a1-3)Man,-0.555
same,glycan array binding signal (z-score),[4],0.79
same,glycan array binding signal (z-score),[5],0.343
same,glycan array binding signal (z-score),[6],-0.187
same,glycan array binding signal (z-score),[7],0.233
same,glycan array binding signal (z-score),[8],-0.547
same,glycan array binding signal (z-score),[9],-0.931
same,glycan array binding signal (z-score),Man(a1-3)[Man(a1-6)]Man,-0.323
same,glycan array binding signal (z-score),[10],0.547
same,glycan array binding signal (z-score),[11],-1.84
same,glycan array binding signal (z-score),[12],-0.897
same,glycan array binding signal (z-score),[13],-0.447
same,glycan array binding signal (z-score),Man(a1-6)Man,-0.896
same,glycan array binding signal (z-score),Man(b1-4)GlcNAc,-0.146
same,glycan array binding signal (z-score),Neu5Ac(a2-3)Gal,-1.12
same,glycan array binding signal (z-score),[14],-0.429
same,glycan array binding signal (z-score),[15],-0.602
same,glycan array binding signal (z-score),[16],0.062
same,glycan array binding signal (z-score),[17],-0.567
same,glycan array binding signal (z-score),[18],0.077
same,glycan array binding signal (z-score),[19],-0.331
same,glycan array binding signal (z-score),[20],0.396
same,glycan array binding signal (z-score),[21],-0.813
same,glycan array binding signal (z-score),[22],-0.289
same,glycan array binding signal (z-score),[23],-1.25
same,glycan array binding signal (z-score),[24],-1.17
same,glycan array binding signal (z-score),[25],0.714
same,glycan array binding signal (z-score),[26],0.311
same,glycan array binding signal (z-score),[27],-0.138
same,glycan array binding signal (z-score),[28],0.792
same,glycan array binding signal (z-score),Neu5Ac(a2-3)Gal(b1-4)Glc,-0.754
